The target of the experiment is SNAIL (snail family zinc finger 1; SNAI1) (human (endogenous in RH30)) (UniProt O95863). The experiment can be described thus: co-IP; 100 ug nuclear extract of RH30 cells (Nuclear Complex Co-IP Kit), 2 ug anti-SNAIL antibody or no antibody, IP Low Buffer, Protein G beads; Western blot of the precipitate. In general terms: In western blotting, separated proteins are transferred to a membrane and probed.

Chains of the proteins cited; added tags and fusions are not shown.
UniProt O95863: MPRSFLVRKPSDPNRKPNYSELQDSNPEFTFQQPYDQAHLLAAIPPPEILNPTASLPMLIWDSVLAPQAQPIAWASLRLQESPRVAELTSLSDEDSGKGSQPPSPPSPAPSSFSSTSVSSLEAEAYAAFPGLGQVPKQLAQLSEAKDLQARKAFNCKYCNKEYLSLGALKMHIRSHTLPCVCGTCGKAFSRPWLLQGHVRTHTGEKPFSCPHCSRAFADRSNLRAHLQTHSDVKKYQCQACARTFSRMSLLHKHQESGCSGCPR
UniProt Q13547: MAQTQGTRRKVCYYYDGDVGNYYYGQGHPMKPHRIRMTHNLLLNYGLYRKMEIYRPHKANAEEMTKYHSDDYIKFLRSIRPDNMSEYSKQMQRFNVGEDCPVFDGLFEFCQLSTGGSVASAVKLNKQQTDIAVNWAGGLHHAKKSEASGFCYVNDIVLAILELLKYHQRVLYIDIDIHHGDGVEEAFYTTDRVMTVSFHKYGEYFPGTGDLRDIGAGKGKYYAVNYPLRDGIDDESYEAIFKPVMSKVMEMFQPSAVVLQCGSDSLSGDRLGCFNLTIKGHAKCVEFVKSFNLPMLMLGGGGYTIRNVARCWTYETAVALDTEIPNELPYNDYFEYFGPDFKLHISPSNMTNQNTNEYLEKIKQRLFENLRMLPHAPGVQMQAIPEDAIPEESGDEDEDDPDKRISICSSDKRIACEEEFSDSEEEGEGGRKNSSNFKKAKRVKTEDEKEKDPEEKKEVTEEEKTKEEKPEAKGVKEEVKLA
UniProt Q92769: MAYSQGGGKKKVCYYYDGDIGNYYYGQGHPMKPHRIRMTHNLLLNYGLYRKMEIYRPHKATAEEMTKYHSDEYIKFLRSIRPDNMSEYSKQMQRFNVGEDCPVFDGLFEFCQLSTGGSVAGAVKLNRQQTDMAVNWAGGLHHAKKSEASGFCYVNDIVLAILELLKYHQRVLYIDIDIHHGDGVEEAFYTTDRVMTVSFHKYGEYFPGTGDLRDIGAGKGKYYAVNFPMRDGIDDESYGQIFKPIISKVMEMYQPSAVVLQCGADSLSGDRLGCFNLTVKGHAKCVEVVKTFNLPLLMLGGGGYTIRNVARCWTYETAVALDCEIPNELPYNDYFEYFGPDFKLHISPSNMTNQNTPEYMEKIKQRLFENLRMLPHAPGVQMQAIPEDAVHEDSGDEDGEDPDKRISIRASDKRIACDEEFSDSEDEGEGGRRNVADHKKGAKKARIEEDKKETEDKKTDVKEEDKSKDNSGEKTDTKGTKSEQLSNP

Results are given in words; binding and its absence hold for the method and conditions named. Binding seen in cells or lysates may run through a third protein. Some entries that bind do so weakly or less than the wild type.

With “histone deacetylase 1 (HDAC1) (from UniProt Q13547 1-482)”, the binding result is listed as “binds”. As for “histone deacetylase 2 (HDAC2) (from UniProt Q92769 1-488)”, the binding result is on record as “binds”.

Values taken from article PMC5974324.
